Test results reported in patent US9005649B2, “Methods for making controlled delivery devices having zero order kinetics” (Board of Regents, the University of Texas System, priority 2009, dated 2015).

Test: Drug loading of polyimide tubes

| SMILES | amount of drug loaded per unit length of the tube (ethanolic suspension, positive pressure, polyimide tube diameter 125 microns) [micrograms/mm] | net amount of drug loaded into the tubes (ethanolic suspension, positive pressure, polyimide tube diameter 125 microns, TGA-7) [micrograms] | average amount loaded per unit length (powder manually loaded, polyimide tubes diameter 1000 microns) [milligrams/cm] |
| --- | --- | --- | --- |
| C[C@]12C=CC(=O)C=C1CC[C@@H]1[C@@H]2[C@@H](O)C[C@@]2(C)[C@H]1CC[C@]2(O)C(=O)CO [prednisolone] | 5.68±0.65 | 87.58±11.70 |  |
| CN(C)c1ccc(C(=C2C=CC(=[N+](C)C)C=C2)c2ccc(N(C)C)cc2)cc1 [crystal violet] |  |  | 5.31±0.28 |
